Laboratory results as given in the supplement of paper PMC10470496.
Where a name gives a salt, the structure may show the parent alone. This is one part of the list. Repeats are few or missing, and single values can be far off.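 The strains were three CDC resistance-bank clinical C. auris isolates from clades III, IV and I, cultured in RPMI-1640 at 35°C. Growth was background-corrected OD600 versus vehicle-only wells on the same plate. A hit needed >50% inhibition in two or more strains plus a plate-corrected B-score exceeding 0.1.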

Legend:
Assay in all cases: growth relative to vehicle control (OD600 ratio) (fraction); higher = less inhibition
Conditions in all cases: 24 h
C. auris AR-384 = system: C. auris AR-384
C. auris AR-386 = system: C. auris AR-386
C. auris AR-387 = system: C. auris AR-387

Compound	growth (C. auris AR-384; 1 µM)	growth (C. auris AR-384; 10 µM)	growth (C. auris AR-386; 1 µM)	growth (C. auris AR-386; 10 µM)	growth (C. auris AR-387; 1 µM)	growth (C. auris AR-387; 10 µM)
O=S(=O)(O)Oc1ccc(C(c2ccc(OS(=O)(=O)O)cc2)c2ccccn2)cc1 [Sodium Picosulfate]	0.97	1.03	0.84	0.58	0.72	0.72
CCN1CCC[C@H]1CNC(=O)c1cc(S(N)(=O)=O)ccc1OC [Levosulpiride]	0.71	0.73	0.75	0.89	0.83	0.79
CC(=O)Nc1nnc(S(N)(=O)=O)s1 [Acetazolamide]	0.96	0.97	0.69	0.88	0.8	0.85
OC(c1ccccc1)(c1ccccc1)C12CC[N+](CCOCc3ccccc3)(CC1)CC2 [Umeclidinium bromide]	1.23	0.92	0.87	0.96	0.65	0.98
CCCC1O[C@@H]2C[C@H]3[C@@H]4CCC5=CC(=O)C=C[C@]5(C)[C@H]4[C@@H](O)C[C@]3(C)[C@]2(C(=O)CO)O1 (stereo partly specified) [Budesonide]	1.08	0.86	0.84	0.81	1.07	1.12
CCCC(CCC)C(=O)O [Valproic acid sodium salt (Sodium valproate)]	1.43	1.03	1.1	0.8	0.81	0.91
COc1cc(C(=O)NS(=O)(=O)c2ccccc2C)ccc1Cc1cn(C)c2ccc(NC(=O)OC3CCCC3)cc12 [Zafirlukast]	0.79	0.51	0.74	0.72	0.93	0.74
COc1cc2/c(=N/c3ccc(Br)cc3F)nc[nH]c2cc1OCC1CCN(C)CC1 [Vandetanib (ZD6474)]	0.7	0.78	1.11	0.94	1.11	0.89
CCCCOc1ccc(CC(=O)NO)cc1 [Bufexamac]	0.89	0.97	1.05	1.03	0.63	0.96
COc1cc2nccc(Oc3ccc(NC(=O)C4(C(=O)Nc5ccc(F)cc5)CC4)cc3)c2cc1OC	0.63	0.63	0.66	0.85	0.76	0.94
NC(=O)c1ncn([C@@H]2O[C@H](CO)[C@@H](O)[C@H]2O)c1O [Mizoribine]	1.02	1.13	1.04	1.22	0.8	0.91
N#Cc1cc(-c2n[nH]c(-c3ccncc3)n2)ccn1 [Topiroxostat]	1.29	1.2	0.94	0.99	1	0.92
C[C@H]1O[C@@H](O[C@H]2[C@@H](O)C[C@H](O[C@H]3[C@@H](O)C[C@H](O[C@H]4CC[C@@]5(C)[C@H](CC[C@@H]6[C@@H]5C[C@@H](O)[C@]5(C)[C@@H](C7=CC(=O)OC7)CC[C@]65O)C4)O[C@@H]3C)O[C@@H]2C)C[C@H](O)[C@@H]1O [Digoxin]	0.76	0.71	0.56	0.94	0.7	0.65
C[C@H]1C[C@@H]2[C@H]([C@@H](O)C[C@@]3(C)[C@H]2CC[C@]3(O)C(=O)CO)[C@@]2(C)C=CC(=O)C=C12 [Methylprednisolone]	0.95	1.35	1.26	1.26	1.01	0.87
CCOc1cc2ncc(C#N)c(Nc3ccc(OCc4ccccn4)c(Cl)c3)c2cc1NC(=O)/C=C/CN(C)C [Neratinib (HKI-272)]	0.92	0.82	0.78	0.74	0.96	1.12
CC1CCc2cc(F)cc3c(=O)c(C(=O)O)cn1c23 (stereo unspecified) [Flumequine]	1.17	0.96	0.9	0.91	0.77	1.1
C[C@@H]1O[C@@H](OC[C@H]2O[C@@H](Oc3c(-c4ccc(OCCO)c(OCCO)c4)oc4cc(OCCO)cc(O)c4c3=O)[C@H](O)[C@@H](O)[C@@H]2O)[C@H](O)[C@H](O)[C@H]1O [Troxerutin]	0.99	0.95	1.13	1.16	1.28	1.27
O=C(O)c1cc(O)c(O)c(O)c1 [Gallic acid]	0.75	0.77	0.99	0.94	0.81	1.02
CC1(C)S[C@@H]2[C@H](NC(=O)[C@H](NC(=O)N3CCNC3=O)c3ccccc3)C(=O)N2[C@H]1C(=O)O [Azlocillin sodium salt]	0.72	0.69	0.64	0.82	0.77	0.6
CC(C(O)c1ccc(O)cc1)N1CCC(Cc2ccccc2)CC1 (stereo unspecified) [Ifenprodil Tartrate]	0.89	0.9	1.08	1.1	1.11	1.07
COc1c(N2CCNC(C)C2)c(F)cc2c(=O)c(C(=O)O)cn(C3CC3)c12 (stereo unspecified) [Gatifloxacin]	0.82	1.13	1.22	1.33	1.14	1.25
CC(=O)NO [Acetohydroxamic acid]	1.12	1.05	1.04	1.16	0.88	1.06
CC[C@H](C)C(=O)O[C@H]1CCC=C2C=C[C@H](C)[C@H](CC[C@@H]3C[C@@H](O)CC(=O)O3)[C@H]21 [Mevastatin]	1.1	1	0.7	0.76	0.86	0.92

Fetched by compound from above, 3 records:
Compound	growth (C. auris AR-384; 1 µM)	growth (C. auris AR-384; 10 µM)	growth (C. auris AR-386; 1 µM)	growth (C. auris AR-386; 10 µM)	growth (C. auris AR-387; 1 µM)	growth (C. auris AR-387; 10 µM)
COc1c(N2CCNC(C)C2)c(F)cc2c(=O)c(C(=O)O)cn(C3CC3)c12 (stereo unspecified) [Gatifloxacin]	0.82	1.13	1.22	1.33	1.14	1.25
CCCC1O[C@@H]2C[C@H]3[C@@H]4CCC5=CC(=O)C=C[C@]5(C)[C@H]4[C@@H](O)C[C@]3(C)[C@]2(C(=O)CO)O1 (stereo partly specified) [Budesonide]	1.08	0.86	0.84	0.81	1.07	1.12
O=S(=O)(O)Oc1ccc(C(c2ccc(OS(=O)(=O)O)cc2)c2ccccn2)cc1 [Sodium Picosulfate]	0.97	1.03	0.84	0.58	0.72	0.72

Continuation.

Compound	growth (C. auris AR-384; 1 µM)	growth (C. auris AR-384; 10 µM)	growth (C. auris AR-386; 1 µM)	growth (C. auris AR-386; 10 µM)	growth (C. auris AR-387; 1 µM)	growth (C. auris AR-387; 10 µM)
CC12CCC(CC1=O)C2(C)C (stereo not drawn) [(+)-Camphor]	0.81	0.97	0.94	0.74	0.79	0.68
CC(C)c1ccc2oc3nc(N)c(C(=O)O)cc3c(=O)c2c1 [Amlexanox]	0.94	0.76	0.76	0.7	0.76	0.7
Nc1nc2c(ncn2COC(CO)CO)c(=O)[nH]1 [Ganciclovir]	0.83	0.87	0.71	0.71	0.7	0.6
CN(C)[C@@H]1C(O)=C(C(N)=O)C(=O)[C@@]2(O)C(O)=C3C(=O)c4c(O)cccc4[C@@](C)(O)[C@H]3C[C@@H]12 [Tetracycline HCl]	0.66	0.92	0.9	0.57	0.77	0.74
CC(=O)N[C@H]1[C@H]([C@H](O)[C@H](O)CO)OC(C(=O)O)=C[C@@H]1NC(=N)N [Zanamivir]	1.28	1.16	1.03	1.19	1.12	1.24
CN1CCC(COc2cnc(-c3cccc(Cn4nc(-c5cccc(C#N)c5)ccc4=O)c3)nc2)CC1	0.76	0.74	1.02	0.58	0.63	0.78
COc1cccc2c1C(=O)c1c(O)c3c(c(O)c1C2=O)CC(O)(C(=O)CO)CC3OC1CC(N)C(O)C(C)O1 (stereo unspecified) [Doxorubicin (Adriamycin) HCl]	0.81	0.8	0.98	0.91	0.86	1.01
O=C(O)CSc1nnc(Br)n1-c1ccc(C2CC2)c2ccccc12 [Lesinurad]	0.88	0.83	0.86	0.83	0.72	0.7
CO/N=C(\C(=O)N[C@@H]1C(=O)N2C(C(=O)[O-])=C(C[N+]3(C)CCCC3)CS[C@H]12)c1csc(N)n1 [Cefepime Dihydrochloride Monohydrate]	0.91	0.81	0.89	0.58	0.63	0.77
O=C(O)Cc1ccccc1Nc1c(Cl)cccc1Cl [Diclofenac Potassium]	0.97	0.77	0.99	0.69	0.68	0.6
O=C(O)CCNC(=O)c1ccccc1 [Betamipron]	1	0.76	1.04	1.08	0.81	0.8
CC(C)Cc1ccc(C(C)C(=O)O)cc1 (stereo unspecified) [Ibuprofen]	0.66	0.57	0.67	0.83	0.91	0.73
Cc1ccc(-n2nc(C(C)(C)C)cc2NC(=O)Nc2ccc(OCCN3CCOCC3)c3ccccc23)cc1 [Doramapimod (BIRB 796)]	0.97	1.2	1.36	1.23	1.39	1.28
CN1CCCCC1CCN1c2ccccc2Sc2ccc([S+](C)[O-])cc21 (stereo unspecified) [Mesoridazine Besylate]	0.96	0.81	0.77	0.78	0.77	1
COc1nc(C)nc(Cl)c1NC1=NCCN1 [Moxonidine]	1.08	0.87	0.91	0.83	0.98	1
CC(C)NCC(O)c1ccc(O)c(O)c1 (stereo unspecified) [Isoprenaline HCl]	0.81	0.74	1.21	1.27	0.99	1.2
CCOC(=O)C1=C[C@@H](OC(CC)CC)[C@H](NC(C)=O)[C@@H](N)C1 [Oseltamivir Phosphate]	0.92	1.07	1.13	0.68	0.87	0.92
COc1ccc2[nH]c([S@@+]([O-])Cc3ncc(C)c(OC)c3C)nc2c1 [Esomeprazole sodium]	0.75	0.72	1.04	0.89	1.06	1.13
COc1ccccc1N1CCN(CC(O)COc2cccc3ccccc23)CC1 (stereo unspecified) [Naftopidil]	0.63	0.6	0.77	0.68	0.71	0.76
CCCCc1nc2cc(/C=C/C(=O)NO)ccc2n1CCN(CC)CC [Pracinostat (SB939)]	1.09	0.89	0.63	1.29	0.84	1.23
COC(=O)[C@H](c1ccccc1Cl)N1CCc2sccc2C1 [Clopidogrel]	1.02	0.57	0.45	0.72	0.79	0.7
C[C@H]1C[C@H]2[C@@H]3CCC4=CC(=O)C=C[C@]4(C)[C@@]3(F)[C@@H](O)C[C@]2(C)[C@@]1(O)C(=O)CO [Betamethasone]	0.61	0.51	0.9	0.81	1	0.92
CC/C(=C(\c1ccccc1)c1ccc(OCCN(C)C)cc1)c1ccccc1 [Tamoxifen Citrate]	0.86	0.66	0.54	0.72	0.67	0.82
